Source: the supplement of paper PMC7877785
± gives the uncertainty stated by the source. The uncertainty is large for many entries.

Assay: self-splicing fitness, log relative to wild type (ln ratio); higher = more splicing; Tetrahymena group I intron in knt gene, E. coli kanamycin selection, DiMSum; sequences stand for … in CUCUCU…GGAGGGAAAAGUUAUCAGGCAUGCACCUGGUAGCUAGUCUUUAAACCAAUAGAUUGCAUCGGUUUAAAAGGCAAGACCGUCAAAUUGCGGGAAAGGGGUCAACAGCCGUUCAGUACCAAGUCUCAGGGGAAACUUUGAGAUGGCCUUGCAAAGGGUAUGGUAAUAAGCUGACGGACAUGGUCCUAACCACGCAGCCAAGUCCUAAGUCAACAGAUCUUCUGUUGAUAUGGAUGCAGUUCACAGACUAAAUGUCGGUCGGGGAAGAUGUAUUCUUCUCAUAAGAUAUAGUCGGACCUCUCCUUAAUGGGAGCUAGCGGAUGAAGUGAUGCAACACUGGAGCCGCUGGGAACUAAUUUGUAUGCGAAAGUAUAUUGAUUAGUUUUGGAGUACUCGUGGUCG
Outline: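 A randomised library covering all eight P1ex-region intron nucleotides was built with the intron in the knt kanamycin-resistance gene on pET-22b(+) and held in E. coli BL21(DE3). Cells were grown overnight at 37°C or 30°C on LB agar, with or without 25 μg/mL kanamycin, plus 100 μg/mL carbenicillin, 50 μM IPTG and 0.2% rhamnose, and pooled colonies were amplicon-sequenced on an Illumina HiSeq 2500. DiMSum fitness is the error-weighted combination of wild-type-normalised replicate fold changes, kanamycin versus none.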

Sequence | self-splicing fitness (ln) (37 °C) | self-splicing fitness (ln) (30 °C)
CGGUAGCAAUAUUACGGAAA | -1.34 ± 0.61 | 
AUACAGCAAUAUUACGAAUA | -0.987 ± 0.11 | -2.51 ± 0.12
UUGAAGCAAUAUUACGGUGA | -0.469 ± 0.09 | -0.275 ± 0.08
CCUUAGCAAUAUUACGCAGG | -2.72 ± 1.1 | -4.57 ± 0.52
UUUUAGCAAUAUUACGUUAC | -3.12 ± 0.73 | -4 ± 0.52
UGAGAGCAAUAUUACGAGUC |  | -5.2 ± 1
GAGGAGCAAUAUUACGCAAG | -1.29 ± 0.87 | -2.82 ± 0.63
CGGAAGCAAUAUUACGCUCU |  | -3.78 ± 0.53
GAGGAGCAAUAUUACGGAGC |  | -3.31 ± 1
UUGCAGCAAUAUUACGUAGC | -3.71 ± 0.72 | 
UGGGAGCAAUAUUACGGCUC | -2.79 ± 1.1 | -2.79 ± 1.2
UCCGAGCAAUAUUACGCGAU |  | -4.9 ± 0.71
CCUAAGCAAUAUUACGACGG | -2.24 ± 0.24 | -3.49 ± 0.19
AUCCAGCAAUAUUACGUCCG | -1.04 ± 0.15 | -2.45 ± 0.17
GGUGAGCAAUAUUACGCCUC | -0.835 ± 0.77 | 
GGUUAGCAAUAUUACGUAGA | 0.265 ± 0.55 | -0.641 ± 0.76
GUCGAGCAAUAUUACGCACC | -0.506 ± 1 | 
CCUUAGCAAUAUUACGCUGC | -2.48 ± 0.54 | -2.81 ± 0.28
GUUGAGCAAUAUUACGUUGC | -1.37 ± 0.74 | 
AUGGAGCAAUAUUACGUGUG |  | -5.38 ± 0.71

Sequence | self-splicing fitness (ln) (37 °C) | self-splicing fitness (ln) (30 °C)
UUUUAGCAAUAUUACGUAUC |  | -4.22 ± 0.6
GAGGAGCAAUAUUACGGGAU | -2.54 ± 1.1 | 
AGAGAGCAAUAUUACGCGAU |  | -4.9 ± 0.72
UUUAAGCAAUAUUACGAGCC | -2.56 ± 0.54 | 
AGAGAGCAAUAUUACGCUGU |  | -4.09 ± 0.73
CAUAAGCAAUAUUACGGGAG | -1.14 ± 0.095 | -1.96 ± 0.097
CAGAAGCAAUAUUACGCGAC |  | -3.9 ± 1
AUUGAGCAAUAUUACGUGUC | -2.53 ± 0.15 | -4.77 ± 0.26
GGCUAGCAAUAUUACGCCCC | -1.74 ± 0.82 | -2.94 ± 1.1
GCACAGCAAUAUUACGGGUC | -1.62 ± 0.097 | -3.81 ± 0.17
AUUGAGCAAUAUUACGCUCA |  | -2.93 ± 0.78
CGAGAGCAAUAUUACGCCCU | -2.07 ± 1.1 | -4.16 ± 1
CGCUAGCAAUAUUACGUGAC |  | -5.2 ± 1
UUGGAGCAAUAUUACGCGCU |  | -2.9 ± 0.61
GAGGAGCAAUAUUACGAGGA |  | -2.33 ± 0.84
UAUAAGCAAUAUUACGCAAA | -2.13 ± 0.5 | -2.79 ± 0.58
CGUUAGCAAUAUUACGCCUA |  | -1.52 ± 1.2
GUAGAGCAAUAUUACGGAUA |  | -3.22 ± 0.61
UUAAAGCAAUAUUACGAGAC | -1.39 ± 0.71 | -2.11 ± 0.5
AUAUAGCAAUAUUACGCUCU | -0.594 ± 0.18 | -0.66 ± 0.18

Some of the entries so far, as tab-separated lines.
Sequence	self-splicing fitness (ln) (37 °C)	self-splicing fitness (ln) (30 °C)
CGGUAGCAAUAUUACGGAAA	-1.34 ± 0.61	
AUACAGCAAUAUUACGAAUA	-0.987 ± 0.11	-2.51 ± 0.12
UUUUAGCAAUAUUACGUUAC	-3.12 ± 0.73	-4 ± 0.52
CGGAAGCAAUAUUACGCUCU		-3.78 ± 0.53
GAGGAGCAAUAUUACGGAGC		-3.31 ± 1
UUGCAGCAAUAUUACGUAGC	-3.71 ± 0.72	
CCUAAGCAAUAUUACGACGG	-2.24 ± 0.24	-3.49 ± 0.19
UUUUAGCAAUAUUACGUAUC		-4.22 ± 0.6
GAGGAGCAAUAUUACGGGAU	-2.54 ± 1.1	
UUUAAGCAAUAUUACGAGCC	-2.56 ± 0.54	
CAGAAGCAAUAUUACGCGAC		-3.9 ± 1
AUUGAGCAAUAUUACGUGUC	-2.53 ± 0.15	-4.77 ± 0.26
GGCUAGCAAUAUUACGCCCC	-1.74 ± 0.82	-2.94 ± 1.1
UUGGAGCAAUAUUACGCGCU		-2.9 ± 0.61
UAUAAGCAAUAUUACGCAAA	-2.13 ± 0.5	-2.79 ± 0.58

Next records

Sequence | self-splicing fitness (ln) (37 °C) | self-splicing fitness (ln) (30 °C)
UCGGAGCAAUAUUACGGAUC | -2.02 ± 0.56 | 
CGAGAGCAAUAUUACGUGCC |  | -4.55 ± 1
CUUAAGCAAUAUUACGCUCC | -2.37 ± 0.64 | -3.01 ± 0.57
GCAGAGCAAUAUUACGACCU |  | -1.27 ± 0.91
CCGGAGCAAUAUUACGACCG | -0.333 ± 0.93 | 
GGGGAGCAAUAUUACGUUGC |  | -1.86 ± 0.71
UUGUAGCAAUAUUACGCGGC | -1.29 ± 0.74 | 
GGGGAGCAAUAUUACGGAAU |  | -3.58 ± 0.54
CCUUAGCAAUAUUACGCCUG |  | -4.11 ± 0.51
AAGUAGCAAUAUUACGAGAG | -1.05 ± 0.21 | -3.09 ± 0.22
UAUUAGCAAUAUUACGGGGU |  | -3.37 ± 0.52
AGAGAGCAAUAUUACGUACA | 0.504 ± 0.58 | -2.12 ± 0.6
GGUCAGCAAUAUUACGUCCC | -2.44 ± 0.56 | -3.15 ± 0.68
GGUAAGCAAUAUUACGCAAC |  | -1.08 ± 0.67
CCGUAGCAAUAUUACGCCCU | -2.86 ± 1.1 | -1.79 ± 0.87
UAUAAGCAAUAUUACGCCCC | -0.688 ± 0.61 | -1.17 ± 0.93
CGUAAGCAAUAUUACGGGCU |  | -4.47 ± 0.72
GUGGAGCAAUAUUACGCCGG | -2.36 ± 0.55 | 
GACGAGCAAUAUUACGAGUU | -2.28 ± 0.79 | -3.06 ± 0.34
